Assay results as given in publication doi:10.1101/2020.12.04.411520.
Results are given in words; binding and its absence hold for the method and conditions named. Binding seen in cells or lysates may run through a third protein. Some results given as binding are weak or reduced against the parent protein; the word gives no strength. Where a sequence is shown, tags or fusion partners need not be part of it.

Sequences of proteins named here, by UniProt entry; tags and fusion partners are left off. A change or cut given only in a name is not applied to a line headed by its entry.
UniProt P05787: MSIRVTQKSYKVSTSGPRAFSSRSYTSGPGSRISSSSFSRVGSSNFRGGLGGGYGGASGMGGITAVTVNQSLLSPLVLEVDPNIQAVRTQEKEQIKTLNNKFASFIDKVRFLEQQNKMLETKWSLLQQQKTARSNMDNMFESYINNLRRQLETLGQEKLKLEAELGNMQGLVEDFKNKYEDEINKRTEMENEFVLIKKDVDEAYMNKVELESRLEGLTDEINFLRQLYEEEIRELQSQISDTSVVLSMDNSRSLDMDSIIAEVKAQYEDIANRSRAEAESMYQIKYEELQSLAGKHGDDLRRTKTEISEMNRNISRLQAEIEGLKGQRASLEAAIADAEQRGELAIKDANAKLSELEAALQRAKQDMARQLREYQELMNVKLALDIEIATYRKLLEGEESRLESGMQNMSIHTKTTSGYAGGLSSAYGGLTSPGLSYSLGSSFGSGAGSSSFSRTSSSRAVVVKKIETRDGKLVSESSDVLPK

Target: T1, BioGFP::BBLN (human) (UniProt Q9BUW7)
T1 sequence (chain, biotin (Bio tag, BirA co-expressed)): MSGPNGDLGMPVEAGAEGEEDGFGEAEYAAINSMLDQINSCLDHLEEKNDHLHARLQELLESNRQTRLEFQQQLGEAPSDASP
Experiment: pull-down

binding: binds
Substance: keratin 8/18 (from UniProt P05787 1-483; P05783 1-430) (complex)
